In PubChem BioAssay AID485314 (National Center for Advancing Translational Sciences (NCATS), 2010):
The campaign covered roughly 340,000 compounds. About 4,500 (1.3%) were called active. This list was built around the results that the source calls inconclusive (neither active nor inactive); the mix of calls is not that of the screen. Calls follow the shape of the dose curve; as a rule, active = well fitted inhibition curve with a large enough effect; inconclusive = small, poorly fitted or top-dose-only effect, or another doubt; inactive = no such curve, though single readings can be large or run the other way. Where the call is inconclusive, the potency comes from a doubtful curve fit.

Each compound was assayed against DNA polymerase beta (Homo sapiens) (UniProt P06746) (assay: qHTS Assay for Inhibitors of DNA Polymerase Beta). Settings: Pol beta primer extension/strand displacement, fluorescence kinetic; activity change, negative = inhibition: at 114 µM (top of the series).
Source text: The base excision repair system in human cells is a target for therapeutic modulation of the response to irradiation treatment and DNA-damaging drugs. A key enzyme in this system is the bi-functional DNA polymerase known as DNA polymerase Beta (Pol Beta). The following is a homogeneous kinetic assay to study the primer extension and strand-displacement reaction catalyzed by pol beta.
A stepwise description of the 1536-well assay is shown in next Table. Three microliters of reagents (buffer in column 3 and 4 as negative control and 10 nM Pol beta in columns 1, 2, and 5-48) was dispensed into 1,536-well black solid-bottomed plate. Compounds (23 nL) were transferred via Kalypsys pin tool equipped with 1536-pin array (10 nL slotted pins, V&P Scientific, San Diego, CA). The plates were incubated for 15 min at room temperature, and 1 uL substrate (50 nM final concentration) were added to start the reaction and immediately read at 0 min read on Viewlux reader. The plate were further incubated for 10 min at room temperature, and then read on Viewlux again. Throughout the screen, reagent bottle and all liquid lines were chilled and made light-tight to minimize reagent degradation. All screening operations were performed on a fully integrated robotic system (Kalypsys, San Diego, CA) containing one RX-130 and two RX-90 anthropomorphic robotic arms (Staubli, Duncan, SC). Library plates were screened starting from the lowest and proceeding to the highest concentration, and a double-dipping step of the highest concentration was required to access higher concentrations of compounds. Vehicle-only plates, with DMSO being pin-transferred to the entire column 5-48 compound area, were inserted uniformly at the beginning and the end of each library in order to monitor for and record any shifts in the background, which can be affected by reagent dispensers or loss in enzyme activity overtime. Screening data were corrected, normalized, and concentration-effect relationships were derived by using publicly-available curve fitting algorithms developed in-house (http://ncgc.nih.gov/pub/openhts). A four parameter Hill equation was fitted to the concentration-response data by minimizing the residual error between the modeled and observed responses.
% is scaled to controls: 0 for no effect and ±100 for the full control effect; potency is read from the fitted curve at half-maximal effect.

Row | Compound | Potency | activity change, negative = inhibition
1 | O=C(CCC(=O)N1CCSc2ccccc21)Nc1ccc(F)cc1 | inconclusive: 0.251 µM [inhibitor, full curve, poor fit] | –
2 | Cc1ccc(NC(=O)CS(=O)CC(=O)Nc2ccc(N3CCOCC3)cc2)cc1Cl (stereo unspecified) | active: 25.1 µM | –
3 | Cc1nn(-c2ccccc2)c(C)c1C(=O)OCC(=O)NC(=O)NC1CCCC1 | – | inactive: -6.38%
4 | Cc1cc(C(=O)OCC(=O)NC2CCS(=O)(=O)C2)c2ccccc2n1 (stereo unspecified) | – | inactive: 2.44%
5 | COc1ccc(CNC(=O)c2ccc3c(c2)NC(=O)C(C)S3)cc1 (stereo unspecified) | inconclusive: 20 µM [inhibitor, full curve, poor fit] | –
6 | CC(=O)Oc1c2occc2cc2ccc(=O)oc12 | active: 50.1 µM | –
7 | O=C(CCn1c(=O)c2sccc2n(Cc2cccc(F)c2)c1=O)NCc1ccc2c(c1)OCO2 | inconclusive: 89.1 µM [inhibitor, single point] | –
8 | CCOc1ccc(OCCOc2ccc(/C=C/C(=O)O)cc2OCC)cc1 | inconclusive: 3.98 µM [inhibitor, full curve, poor fit] | –
9 | Cc1ccc(S(=O)(=O)N2CCN(Cc3ccsc3)CC2)cc1 | – | inactive: 0.203%
10 | CCOC(=O)CSc1nnc(-c2ccc(S(=O)(=O)N3CCOCC3)cc2)n1-c1ccccc1 | inconclusive: 3.16 µM [inhibitor, single point] | –
11 | COc1cccc(/C=C2\SC(=S)N(CCCC(=O)Nc3ccc(C(=O)O)cc3)C2=O)c1 | – | inactive: 20.2%
12 | Cc1cc[n+](CCC(=O)O)c2ccccc12 | inconclusive: 28.2 µM [inhibitor, single point] | –
14 | CCC(=O)N(CCN1CCOCC1)Cc1cc2cc3c(cc2nc1Cl)OCO3 | inconclusive: 25.1 µM [inhibitor, partial curve, poor fit] | –
15 | CNC(=O)C1CCN(S(=O)(=O)c2c(C)noc2/C=C/c2cccc(C)c2)CC1 | – | inconclusive: -44.9% [inhibitor]
16 | COc1ccc(-n2c3c(cc(-c4nc(-c5ccc(Cl)cc5)cs4)c2=O)C(=O)CC(C)(C)C3)cc1 | – | inactive: -8.49%
17 | COc1ccc(C2c3c(n(C)c4ccccc34)C(=O)N2CC(=O)Nc2ccccc2F)cc1 (stereo unspecified) | – | inactive: -1.07%
18 | Cc1ccc(-c2nnc3ccc(SCC(=O)NCc4ccco4)nn23)cc1 | inconclusive: 50.1 µM [inhibitor, partial curve] | –
19 | CCCN(CCC)CCCNc1ccc2nnc(-c3ccc(F)cc3)n2n1 | inconclusive: 15.8 µM [inhibitor, full curve, poor fit] | –
20 | Cc1ccc(OCCn2cnc3ccccc3c2=O)c([N+](=O)[O-])c1 | inconclusive: 39.8 µM [inhibitor, single point] | –
21 | Cc1ccccc1NC(=O)c1c(C)nn(-c2ccccc2)c1Cl | – | inactive: 11.3%
22 | O=C(N/N=C/C(Cl)=C/c1ccccc1)c1cnccn1 | inconclusive: 89.1 µM [inhibitor, single point] | –
23 | O=C(COc1ccc(Br)cc1)N1CCc2ccccc21 | inconclusive: 89.1 µM [inhibitor, single point] | –
24 | O=C(O)c1cccc(-n2nnnc2SCc2ccccn2)c1 | inconclusive: 100 µM [inhibitor, single point] | –

One compound at a time (already shown). Order of values: Potency | activity change, negative = inhibition
CNC(=O)C1CCN(S(=O)(=O)c2c(C)noc2/C=C/c2cccc(C)c2)CC1 is listed with – | inconclusive: -44.9% [inhibitor]
COc1ccc(CNC(=O)c2ccc3c(c2)NC(=O)C(C)S3)cc1 (stereo unspecified) is listed with inconclusive: 20 µM [inhibitor, full curve, poor fit] | –

(listing goes on)

Row | Compound | Potency | activity change, negative = inhibition
25 | COc1ccc(CNC(=O)Cn2nc(-c3ccc4c(c3)OCCO4)ccc2=O)cc1 | – | inactive: 11.9%
26 | COc1ccc(Cl)c(Cn2c(NCc3ccco3)nc3c2c(=O)n(C)c(=O)n3C)c1 | active: 14.1 µM | –
27 | Cc1ccc(-c2nc3nc(C)cc(Nc4ccccc4O)n3n2)cc1 | inconclusive: 17.8 µM [inhibitor, full curve] | –
28 | O=C(CN1C(=O)C2CC=CCC2C1=O)OCc1cc(=O)n2cc(Br)ccc2n1 (stereo unspecified) | inconclusive: 20 µM [inhibitor, full curve, poor fit] | –
29 | NC(=O)NC(=O)COC(=O)CCCSc1nc2ccccc2s1 | inconclusive: 89.1 µM [inhibitor, single point] | –
30 | O=C(/C=C/Nc1ccc(Oc2ccccc2Cl)cc1)c1ccco1 | inconclusive: 4.47 µM [inhibitor, partial curve] | –
31 | Cc1nc(Cl)cc(N/N=C/c2ccc(O)cc2O)n1 | inconclusive: 100 µM [inhibitor, single point] | –
32 | COc1ccc(NC(=O)Cn2c(=O)n(CC3CCCO3)c(=O)c3cc(OC)c(OC)cc32)c(OC)c1 (stereo unspecified) | inconclusive: 0.891 µM [inhibitor, full curve, poor fit] | –
33 | O=C(COc1ccc(Cl)cc1)Nc1cc(S(=O)(=O)N2CCCCC2)ccc1N1CCCCC1 | – | inactive: 1.29%
34 | Cc1cc(N2C(=O)c3ccc(C(=O)Nc4ccc(O)cc4C(=O)O)cc3C2=O)no1 | inconclusive: 22.4 µM [inhibitor, full curve, poor fit] | –
35 | Cc1ccccc1C(=O)Nc1ccc2c(C#N)c3nc4ccccc4nc3n2c1 | inconclusive: 1.78 µM [inhibitor, full curve, poor fit] | –
36 | O=C(/C=C/c1ccco1)N1CCN(c2ccc(F)cc2)CC1 | – | inconclusive: -34.4% [inhibitor]
37 | Cc1ccc2oc(-c3cc(NC(=O)c4ccco4)ccc3Cl)nc2c1 | – | inactive: -10.6%
38 | Cc1cnc(NC(=O)CSc2nnc(N)s2)s1 | inconclusive: 56.2 µM [inhibitor, single point] | –
39 | CCS(=O)(=O)n1nc(-c2ccc(Cl)cc2)nc1SC | inconclusive: 7.94 µM [inhibitor, full curve, poor fit] | –
40 | COc1cccc(N2CC(C(=O)Nc3nnc(SCCC4OCCO4)s3)CC2=O)c1 (stereo unspecified) | – | inactive: -10.3%
41 | Cn1c(=O)c2c(nc(NCC3CCCC(CN)C3)n2Cc2ccc(Cl)cc2Cl)n(C)c1=O (stereo unspecified) | – | inactive: 4.19%
42 | COc1ccc(-n2c(=O)c3c4c(sc3n(CC(=O)Nc3cc(C)[nH]n3)c2=O)CCCC4)c(OC)c1 | inconclusive: 89.1 µM [inhibitor, single point] | –
43 | Cc1sc(NC(=O)Cn2[nH]c(=O)c3ccccc3c2=O)nc1-c1ccccc1 | inconclusive: 89.1 µM [inhibitor, single point] | –
44 | O=C(c1ccc(CSc2nc3ccncc3n2Cc2cccc(F)c2)cc1)N1CCCCC1 | – | inactive: -0.189%
45 | Cc1nn(Cc2ccc(Cl)cc2)c(C)c1NC(=O)c1noc2c1CCCCC2 | inconclusive: 39.8 µM [inhibitor, single point] | –
46 | CCOc1ccc(CCNC(=O)c2cn(CC)c3ccc(S(=O)(=O)N4CCCCCC4)cc3c2=O)cc1OCC | inconclusive: 100 µM [inhibitor, single point] | –
47 | Cc1cc(=O)oc2c(CN3CCC(C)CC3)c(O)c(Cl)cc12 | active: 15.8 µM | –
48 | C=CCn1c(SCC(C)=O)nc2scc(-c3ccco3)c2c1=O | active: 10 µM | –

Row | Compound | Potency | activity change, negative = inhibition
49 | COc1cc(OC)cc(C(=O)Nc2cccc3ccccc23)c1 | – | inactive: -19.8%
50 | CCOC(=O)c1sc(NC(=O)CSc2n[nH]c(-c3ccccc3)n2)c(C#N)c1C | – | inactive: -13.5%
51 | CCc1ccccc1NC(=O)CCS(=O)(=O)c1ccc(Br)cc1 | active: 35.5 µM | –
52 | COC(=O)C1(C)NC(=O)c2ccccc2N1 (stereo unspecified) | inconclusive: 89.1 µM [inhibitor, single point] | –
53 | CNC(C)C#Cc1ccc2sc3cccc(OC)c3c(=O)c2c1 (stereo unspecified) | – | inactive: 3.27%
54 | CCC(=O)Nc1cccc(C2=NOC3(C2)C[C@@H](C(N)=O)N(C(=O)COc2ccc(Cl)cc2)C3)c1 (stereo partly specified) | inconclusive: 79.4 µM [inhibitor, partial curve] | –
55 | Oc1ccc(Nc2nc3ccccc3nc2Nc2ccc(O)cc2)cc1 | active: 39.8 µM | –
56 | CC(C)Cc1nc2oc3c(Cl)ncnc3c2c2c1CCCC2 | inconclusive: 0.282 µM [inhibitor, full curve, poor fit] | –
57 | O=C(O)c1[nH]c2ccc(Cl)cc2c1CC(=O)N1CCN(c2ccccc2)CC1 | inconclusive: 100 µM [inhibitor, single point] | –
58 | O=C(O)c1ccc(/C=C/c2ccc3cccc(O)c3n2)cc1 | inconclusive: 22.4 µM [inhibitor, full curve] | –
59 | Cn1cc(C(=O)NCc2ccccc2)c(=O)c2cc(S(=O)(=O)N3CCOCC3)ccc21 | – | inactive: -9.24%
60 | O=c1[nH]c2c(s1)C(c1ccc(O)cc1)C1C3CCC(C3)C1S2 (stereo unspecified) | – | inactive: 0.0713%
61 | CS(=O)(=O)c1cnc(-c2cccnc2)nc1N | inconclusive: 100 µM [inhibitor, single point] | –
62 | COc1ccc(S(=O)(=O)N(CCCN2CCCC2=O)Cc2cc3c(C)ccc(C)c3[nH]c2=O)cc1 | active: 89.1 µM | –
63 | O=c1cc(CSc2nnc(COc3ccccc3Cl)o2)nc2sccn12 | active: 35.5 µM | –
64 | Nc1cc(=O)nc(SCC(=O)N(C2CCCCC2)C2CCCCC2)n1-c1ccccc1 | inconclusive: 89.1 µM [inhibitor, single point] | –
65 | CC(C)Cc1nnc(NC(=O)C2CCCC2)s1 | inconclusive: 89.1 µM [inhibitor, single point] | –
66 | CCc1ccc(NC(=O)Nc2cccs2)cc1 | inconclusive: 79.4 µM [inhibitor, partial curve] | –
67 | Cc1cc(NC(=O)N(C)CCc2c(C)nn(C)c2C)ccc1Br | – | inactive: 8.96%
68 | CCOc1cc(/C=C2/C(=N)N3C=CSC3=NC2=O)ccc1OCCCOc1ccccc1C | inconclusive: 0.631 µM [inhibitor, full curve] | –
69 | Cc1ccc(Cl)cc1NC(=O)Cn1c(=O)n(CCC(=O)NCc2ccc3c(c2)OCO3)c(=O)c2sccc21 | active: 14.1 µM | –
70 | COc1ccc(OC)c(NC(=O)c2cc(S(=O)(=O)N3CCCCC3)c[nH]2)c1 | inconclusive: 39.8 µM [inhibitor, single point] | –
71 | Cn1cc(S(=O)(=O)N2CCc3ccccc32)cc1C(=O)NC1CCCCC1 | inconclusive: 1.41 µM [inhibitor, partial curve, poor fit] | –

A few values from the list:
activity change, negative = inhibition, `COc1cc(OC)cc(C(=O)Nc2cccc3ccccc23)c1` reads inactive: -19.8%
Potency, `COC(=O)C1(C)NC(=O)c2ccccc2N1` (stereo unspecified) reads inconclusive: 89.1 µM [inhibitor, single point]
